Measured data: PubChem BioAssay AID1508597 (Cure First, 2020)
Test: 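Knock-downs altering ovarian cancer cell survival with or without PARP inhibitor rucaparib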 (primary screen). Cell system: human ovarian carcinoma lines grown from tumours: OCI-P5x (papillary serous) and OCI-C5x (clear cell). Reagent: siRNA pool against human genes, 1.25 pmol siRNA per well. Duration: 72 h or 96 h, depending on the cell culture. Treatment: rucaparib 20 µM (about IC30) or vehicle, present until read-out. Rucaparib or vehicle: Rucaparib. Cell line: OCI-P5x (serous). Measurement: 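Luminescent ATP-based viability assay read 72 or 96 h after transfection, depending on culture, given as normalised percent viability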. Scale: viability, normalised: higher = more viable cells remaining. Hit rule: 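Active when normalised viability falls below 80 percent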. Calls: active = viability under 80%; inactive = viability 80% or more.
Shown is a random part of the about 2,100 reagents, under one of the conditions tested. 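Calls flag viability under 80% in either arm, not effects specific to rucaparib; the reference for percent is not stated.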 Entries without a mark were called inactive. A reagent listed more than once was tested more than once; the source does not tell the runs apart. The record does not give: the 100% reference.

| gene | technical replicate | viability, normalised (%) |
| --- | --- | --- |
| PDE6G | 1 | 57 (active) |
| PDE6G | 2 | 71.9 (active) |
| PDE6G | 3 | 76.4 (active) |
| EIF5A2 | 1 | 62.5 (active) |
| EIF5A2 | 2 | 56.4 (active) |
| EIF5A2 | 3 | 79.3 (active) |
| DHX33 | 1 | 72.8 (active) |
| DHX33 | 2 | 86.8 |
| DHX33 | 3 | 83.4 |
| DDX60 | 1 | 77.9 (active) |
| DDX60 | 2 | 80.9 |
| DDX60 | 3 | 68.2 (active) |
| TWF2 | 1 | 96.7 |
| TWF2 | 2 | 98.9 |
| TWF2 | 3 | 72.7 (active) |

Records listed so far whose target name begins with P or p:
| gene | technical replicate | viability, normalised (%) |
| --- | --- | --- |
| PDE6G | 1 | 57 (active) |
| PDE6G | 2 | 71.9 (active) |
| PDE6G | 3 | 76.4 (active) |

Continued:
| gene | technical replicate | viability, normalised (%) |
| --- | --- | --- |
| IP6K1 | 1 | 72.1 (active) |
| IP6K1 | 2 | 64.5 (active) |
| IP6K1 | 3 | 73.4 (active) |
| IL4 | 1 | 60.6 (active) |
| IL4 | 2 | 48 (active) |
| IL4 | 3 | 51.4 (active) |
| PRKDC | 1 | 90.5 |
| PRKDC | 1 | 87.4 |
| PRKDC | 2 | 90.9 |
| PRKDC | 2 | 81.8 |
| PRKDC | 3 | 88.2 |
| PRKDC | 3 | 91.8 |
